Experimental data from article PMC6152638, “Anti-Inflammatory Phenolic Acid Esters from the Roots and Rhizomes of Notopterygium incisium and Their Permeability in the Human Caco-2 Monolayer Cell Model” (Molecules : A Journal of Synthetic Chemistry and Natural …, 2017).

Experiment: Transport in the human intestinal Caco-2 cell monolayer model
Type: in vitro ADME
Conditions: Caco-2, values as stated in text
Method: For confluence and differentiation, cells were seeded at a density of 1 × 10^5 cells/cm^2 into 12-well Transwell plates (insert diameter 12 mm, pore size 3.0 μm, membrane growth area 1.12 cm^2, Costar® #3402) and were allowed to grow for 21 days before the permeation experiment. On Day 21, the monolayers with TEER values >500 Ω·cm^2 were qualified for the transport experiment. The transport study was initiated by the careful removal of the culture medium from AP and BL side of the inserts. Caco-2 monolayers were rinsed twice with pre-warmed HBSS and were incubated by pre-warmed HBSS for 30 min at 37 °C. Stock solutions of test phenolic acid esters were prepared in DMSO and diluted to 50 µM with HBSS. […] Samples were collected from the inserts, then frozen, lyophilized, redissolved in MeOH, and injected into HPLC system for quantitative analysis.
The Papp values were calculated as the following equation:Papp = (dQ/dt) × (1/A) × (1/C0) (cm/s)(1) where dQ/dt is the rate of the appearance of the test compound on the receiver compartment (μmol/s), C0 is the initial test compound concentration on the donor compartment (μmol/mL), and A is the surface area of Caco-2 monolayer (cm^2).

- Papp A→B at 90 min, 50 µM: 0.554 ×10⁻⁶ cm/s
Structure (SMILES): CC(C)NCC(O)COc1ccc(CC(N)=O)cc1 (stereo not shown) [atenolol, reference compound]
